Laboratory results reported in the supplement of paper PMC12819154, “High-throughput peptide-centric local stability assay extends protein–ligand identification to membrane proteins, tissues and bacteria” (Nature Structural & Molecular Biology, 2025).
The list shows a part of the results. Small differences around the control level are noise.

Protein sequences, listed by entry. Tags and fused reporters are not part of them. Lines headed by an entry give the natural chain unless they say otherwise; changes in a name come on top.
UniProt Q9Y5P6: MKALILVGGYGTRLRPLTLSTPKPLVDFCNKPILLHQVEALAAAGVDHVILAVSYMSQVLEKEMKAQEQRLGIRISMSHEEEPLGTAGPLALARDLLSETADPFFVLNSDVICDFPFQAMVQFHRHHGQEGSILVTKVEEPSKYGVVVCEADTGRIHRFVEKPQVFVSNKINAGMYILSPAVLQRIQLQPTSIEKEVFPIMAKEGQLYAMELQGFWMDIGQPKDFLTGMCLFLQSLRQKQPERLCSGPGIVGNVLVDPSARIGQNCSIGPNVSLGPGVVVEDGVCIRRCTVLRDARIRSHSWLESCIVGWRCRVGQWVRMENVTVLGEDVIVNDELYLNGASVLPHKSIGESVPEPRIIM
UniProt Q9Y3A4: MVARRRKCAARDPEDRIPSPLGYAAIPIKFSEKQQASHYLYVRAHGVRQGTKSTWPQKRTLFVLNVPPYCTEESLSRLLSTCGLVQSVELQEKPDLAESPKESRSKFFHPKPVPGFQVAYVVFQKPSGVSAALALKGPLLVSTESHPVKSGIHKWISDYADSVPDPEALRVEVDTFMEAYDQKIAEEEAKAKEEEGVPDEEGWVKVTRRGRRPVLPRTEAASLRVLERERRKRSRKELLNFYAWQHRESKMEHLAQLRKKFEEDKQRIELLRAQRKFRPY
UniProt Q9Y365: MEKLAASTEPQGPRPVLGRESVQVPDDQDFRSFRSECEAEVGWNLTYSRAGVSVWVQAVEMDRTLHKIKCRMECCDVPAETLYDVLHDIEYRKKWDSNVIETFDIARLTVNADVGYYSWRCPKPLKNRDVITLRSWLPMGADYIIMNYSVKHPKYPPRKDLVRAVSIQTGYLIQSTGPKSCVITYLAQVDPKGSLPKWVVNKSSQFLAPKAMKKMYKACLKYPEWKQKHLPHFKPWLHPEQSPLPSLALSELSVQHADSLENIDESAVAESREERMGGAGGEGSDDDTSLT
UniProt Q9Y5N6: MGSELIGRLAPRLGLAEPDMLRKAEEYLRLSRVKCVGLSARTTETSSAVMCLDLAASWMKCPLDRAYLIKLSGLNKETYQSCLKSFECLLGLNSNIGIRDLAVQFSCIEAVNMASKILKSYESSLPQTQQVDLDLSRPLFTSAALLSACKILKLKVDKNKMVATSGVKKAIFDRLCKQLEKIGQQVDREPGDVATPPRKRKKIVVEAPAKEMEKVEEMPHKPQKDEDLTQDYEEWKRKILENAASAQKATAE
UniProt Q9Y295: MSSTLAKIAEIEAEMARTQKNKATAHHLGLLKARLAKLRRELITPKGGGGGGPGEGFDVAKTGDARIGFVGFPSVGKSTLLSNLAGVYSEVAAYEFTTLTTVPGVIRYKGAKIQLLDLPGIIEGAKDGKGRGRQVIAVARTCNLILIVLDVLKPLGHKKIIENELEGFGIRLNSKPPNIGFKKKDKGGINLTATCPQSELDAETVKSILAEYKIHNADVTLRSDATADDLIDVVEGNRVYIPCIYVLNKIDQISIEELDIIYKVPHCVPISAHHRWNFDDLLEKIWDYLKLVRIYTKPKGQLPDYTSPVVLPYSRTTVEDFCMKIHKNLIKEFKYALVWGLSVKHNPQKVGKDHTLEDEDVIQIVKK
UniProt Q9Y2D4: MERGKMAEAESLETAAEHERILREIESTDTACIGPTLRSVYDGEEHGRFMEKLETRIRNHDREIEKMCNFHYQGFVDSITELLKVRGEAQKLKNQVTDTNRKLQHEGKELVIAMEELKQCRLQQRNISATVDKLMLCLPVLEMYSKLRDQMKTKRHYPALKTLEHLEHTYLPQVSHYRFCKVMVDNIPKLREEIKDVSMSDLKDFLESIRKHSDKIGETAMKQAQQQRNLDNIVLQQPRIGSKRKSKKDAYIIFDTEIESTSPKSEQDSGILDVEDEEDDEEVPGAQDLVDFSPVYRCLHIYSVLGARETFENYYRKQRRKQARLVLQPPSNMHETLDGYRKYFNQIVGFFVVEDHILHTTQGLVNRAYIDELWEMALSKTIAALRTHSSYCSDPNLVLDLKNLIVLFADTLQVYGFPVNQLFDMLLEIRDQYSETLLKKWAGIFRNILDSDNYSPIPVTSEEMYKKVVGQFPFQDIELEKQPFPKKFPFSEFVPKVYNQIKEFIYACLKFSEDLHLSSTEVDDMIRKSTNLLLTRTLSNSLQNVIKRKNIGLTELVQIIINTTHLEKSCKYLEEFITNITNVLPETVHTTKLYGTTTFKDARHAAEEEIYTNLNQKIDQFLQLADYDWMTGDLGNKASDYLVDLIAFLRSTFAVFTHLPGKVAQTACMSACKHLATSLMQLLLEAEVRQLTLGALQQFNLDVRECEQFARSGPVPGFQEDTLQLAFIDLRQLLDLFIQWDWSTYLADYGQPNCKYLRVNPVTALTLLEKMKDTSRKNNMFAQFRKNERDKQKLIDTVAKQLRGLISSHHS
UniProt Q9Y4B5: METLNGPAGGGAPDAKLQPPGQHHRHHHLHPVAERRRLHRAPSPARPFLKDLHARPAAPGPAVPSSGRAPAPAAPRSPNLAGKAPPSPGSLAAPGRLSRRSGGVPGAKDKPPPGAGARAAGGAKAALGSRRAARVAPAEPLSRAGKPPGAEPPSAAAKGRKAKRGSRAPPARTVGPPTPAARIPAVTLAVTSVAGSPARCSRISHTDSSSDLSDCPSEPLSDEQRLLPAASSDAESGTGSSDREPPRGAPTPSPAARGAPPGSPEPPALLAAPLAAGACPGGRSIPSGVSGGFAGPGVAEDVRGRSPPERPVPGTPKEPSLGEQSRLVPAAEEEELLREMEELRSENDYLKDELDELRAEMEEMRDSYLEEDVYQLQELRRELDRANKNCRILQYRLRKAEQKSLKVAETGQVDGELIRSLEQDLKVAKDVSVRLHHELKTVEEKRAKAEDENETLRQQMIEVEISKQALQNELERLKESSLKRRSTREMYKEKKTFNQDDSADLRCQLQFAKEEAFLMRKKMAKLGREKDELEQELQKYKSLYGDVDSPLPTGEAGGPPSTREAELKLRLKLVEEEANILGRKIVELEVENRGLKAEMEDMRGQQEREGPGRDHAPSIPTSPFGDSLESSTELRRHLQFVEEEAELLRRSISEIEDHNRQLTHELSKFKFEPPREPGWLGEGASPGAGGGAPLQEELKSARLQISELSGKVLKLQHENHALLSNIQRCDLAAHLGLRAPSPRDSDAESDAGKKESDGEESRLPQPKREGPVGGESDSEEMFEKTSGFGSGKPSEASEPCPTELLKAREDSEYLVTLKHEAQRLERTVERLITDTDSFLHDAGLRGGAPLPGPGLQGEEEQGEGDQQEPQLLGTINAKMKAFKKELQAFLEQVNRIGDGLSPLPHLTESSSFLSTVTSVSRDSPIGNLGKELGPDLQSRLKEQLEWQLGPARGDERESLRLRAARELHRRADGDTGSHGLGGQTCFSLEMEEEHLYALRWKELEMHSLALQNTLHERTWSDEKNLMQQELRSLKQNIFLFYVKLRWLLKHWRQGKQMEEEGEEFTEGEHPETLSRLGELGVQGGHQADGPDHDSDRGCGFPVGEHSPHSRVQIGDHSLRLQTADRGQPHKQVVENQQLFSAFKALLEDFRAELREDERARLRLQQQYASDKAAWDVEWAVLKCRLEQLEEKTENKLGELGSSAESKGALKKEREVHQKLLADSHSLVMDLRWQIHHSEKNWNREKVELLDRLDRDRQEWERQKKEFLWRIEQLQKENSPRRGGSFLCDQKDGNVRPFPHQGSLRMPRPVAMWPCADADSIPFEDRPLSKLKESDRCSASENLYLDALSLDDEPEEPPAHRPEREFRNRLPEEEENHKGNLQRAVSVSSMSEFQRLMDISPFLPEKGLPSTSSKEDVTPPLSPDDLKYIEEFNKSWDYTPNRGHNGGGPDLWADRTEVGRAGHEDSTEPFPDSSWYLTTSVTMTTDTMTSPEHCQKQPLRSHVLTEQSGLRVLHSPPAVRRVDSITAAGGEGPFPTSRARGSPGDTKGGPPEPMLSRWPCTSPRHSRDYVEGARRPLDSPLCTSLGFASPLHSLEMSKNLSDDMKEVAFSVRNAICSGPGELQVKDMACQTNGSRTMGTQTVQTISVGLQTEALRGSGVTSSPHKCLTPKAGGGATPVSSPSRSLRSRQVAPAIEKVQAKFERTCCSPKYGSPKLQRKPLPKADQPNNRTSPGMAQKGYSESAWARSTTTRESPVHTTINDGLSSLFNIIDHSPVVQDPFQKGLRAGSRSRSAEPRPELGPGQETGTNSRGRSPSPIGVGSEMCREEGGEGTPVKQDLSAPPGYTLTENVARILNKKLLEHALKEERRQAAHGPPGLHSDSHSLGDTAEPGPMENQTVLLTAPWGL
UniProt Q9Y6K8: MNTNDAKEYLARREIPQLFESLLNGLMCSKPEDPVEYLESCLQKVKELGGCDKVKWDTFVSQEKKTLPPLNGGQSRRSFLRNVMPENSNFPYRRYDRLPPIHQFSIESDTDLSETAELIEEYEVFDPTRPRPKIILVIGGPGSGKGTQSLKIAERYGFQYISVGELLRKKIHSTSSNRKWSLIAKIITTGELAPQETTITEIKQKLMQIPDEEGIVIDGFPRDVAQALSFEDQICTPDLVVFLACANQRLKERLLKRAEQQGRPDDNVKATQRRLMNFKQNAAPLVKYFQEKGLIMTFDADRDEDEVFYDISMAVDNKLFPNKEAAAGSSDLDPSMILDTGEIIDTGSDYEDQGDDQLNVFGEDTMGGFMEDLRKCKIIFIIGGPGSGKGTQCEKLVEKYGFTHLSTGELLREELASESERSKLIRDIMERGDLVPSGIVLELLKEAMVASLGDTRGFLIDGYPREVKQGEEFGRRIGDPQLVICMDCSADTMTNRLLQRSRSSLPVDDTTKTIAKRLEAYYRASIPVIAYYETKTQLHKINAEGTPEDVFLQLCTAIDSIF
UniProt Q9Y3C8: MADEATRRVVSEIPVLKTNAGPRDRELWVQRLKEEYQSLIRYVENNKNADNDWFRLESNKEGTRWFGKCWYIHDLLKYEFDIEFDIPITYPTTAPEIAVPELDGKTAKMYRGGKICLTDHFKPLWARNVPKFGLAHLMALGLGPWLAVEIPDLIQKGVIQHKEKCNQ

Compound: Cc1nc(Nc2ncc(C(=O)Nc3c(C)cccc3Cl)s2)cc(N2CCN(CCO)CC2)n1 [dasatinib]
Assay: log2 fold change of tryptic peptide abundance, ligand vs vehicle (limited proteolysis) (log2 ratio); higher = more trypsin-susceptible (destabilized)
Settings: ligand concentration: 5 uM; sample: K562 cleared lysate

Row | Target | log2 fold change
1 | GMPPB (peptide sequence: SIGESVPEPR, peptide start residue: 348) (UniProt Q9Y5P6) | -0.0778
2 | RRP7A (peptide sequence: CAARDPEDRIPSPLGYAAIPIK, peptide start residue: 8) (UniProt Q9Y3A4) | 0.197
3 | STARD10 (peptide sequence: LAASTEPQGPRPVLGR, peptide start residue: 4) (UniProt Q9Y365) | -0.0566
4 | ORC6 (peptide sequence: IGQQVDREPGDVATPPR, peptide start residue: 182) (UniProt Q9Y5N6) | -0.206
5 | DRG1 (peptide sequence: NKATAHHLGLLK, peptide start residue: 21) (UniProt Q9Y295) | -0.407
6 | EXOC6B (peptide sequence: TLSNSLQNVIK, peptide start residue: 537) (UniProt Q9Y2D4) | -0.382
7 | MTCL1 (peptide sequence: NRLPEEEENHKGNLQR, peptide start residue: 1367) (UniProt Q9Y4B5) | 0.706
8 | AK5 (peptide sequence: GFLIDGYPR, peptide start residue: 89) (UniProt Q9Y6K8) | -0.0329
9 | UFC1 (peptide sequence: CWYIHDLLK, peptide start residue: 69) (UniProt Q9Y3C8) | -0.345
